Values from PubChem BioAssay AID1224826 (NIAID, 2016)
The deposit covers about 17,000 reagents; this is a part drawn at random. In the full data, about 1,110 (6.6%) are marked active. 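Active means lowered or raised reporter signal; replicate intensities are raw and not normalised per plate.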 Not all columns of the deposit are shown.

- Purpose: 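Regulators of Tlr4 signalling leading to Tnf-alpha expression in macrophages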 (primary screen)
- System: RAW264.7 G9 macrophages from mouse bearing reporters for p65 (GFP) and the Tnf promoter (mCherry)
- Reagents: siRNA pool against mouse genes, 100 nM
- Time to read-out: 16 h of LPS stimulation, after 2 days of siRNA transfection
- Treatment: bacterial lipopolysaccharide (Salmonella minnesota R595), 10 ng/ml
- Read-out: 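Nuclear mCherry signal of the Tnf promoter reporter measured by imaging after background removal, scaled to each plate median and turned into robust z-scores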
- Scale: Tnf reporter robust z-score: higher = stronger Tnf promoter reporter signal after LPS
- Active means: 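a well counts as active at a score of -1.3 or below (Tlr4 knock-down control median) or above 3 (raised signal); controls and wells holding fewer than 50 cells are excluded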
- Calls: active = Tnf reporter clearly lowered or raised; inactive = no clear change in Tnf reporter

Silencing of Dvl2 came out at: Tnf reporter robust z-score 0.09; fewer than 50 cells in well enough cells in well; inactive. With knock-down of Sox17 the results were Tnf reporter robust z-score 3.33; fewer than 50 cells in well enough cells in well; active. After knock-down of Podn, the record shows Tnf reporter robust z-score 0.07; fewer than 50 cells in well enough cells in well; inactive. With knock-down of Tango2, the screen gave Tnf reporter robust z-score 1.3; fewer than 50 cells in well enough cells in well; inactive. Knock-down of Hps3 resulted in: Tnf reporter robust z-score 0.95; fewer than 50 cells in well enough cells in well; inactive. Against Cldn14, the entry reads Tnf reporter robust z-score 1.74; fewer than 50 cells in well enough cells in well; inactive.

With knock-down of Accs the results were fewer than 50 cells in well fewer than 50 cells per well; well left out of calls; inactive. Fut1 scored Tnf reporter robust z-score 0.88; fewer than 50 cells in well enough cells in well; inactive. With knock-down of Nop10 the results were Tnf reporter robust z-score -1.32; fewer than 50 cells in well enough cells in well; active. Against Gprasp3 the deposit lists Tnf reporter robust z-score -0.63; fewer than 50 cells in well enough cells in well; inactive. Rhox6 scored Tnf reporter robust z-score 2.31; fewer than 50 cells in well enough cells in well; inactive. Gpc5 scored Tnf reporter robust z-score -0.69; fewer than 50 cells in well enough cells in well; inactive.

Knock-down of Vmn1r64 gave: Tnf reporter robust z-score -0.37; fewer than 50 cells in well enough cells in well; inactive. Silencing of Tbc1d8 came out at: Tnf reporter robust z-score 0.29; fewer than 50 cells in well enough cells in well; inactive. Knock-down of Cdk8 resulted in: Tnf reporter robust z-score 1.33; fewer than 50 cells in well enough cells in well; inactive. Ndufv3 showed Tnf reporter robust z-score 2.8; fewer than 50 cells in well enough cells in well; inactive. Knock-down of Mta3 resulted in: Tnf reporter robust z-score 0.25; fewer than 50 cells in well enough cells in well; inactive. With knock-down of Plod3 the results were Tnf reporter robust z-score -0.29; fewer than 50 cells in well enough cells in well; inactive.

Knock-down of Cyp2e1 came out at: Tnf reporter robust z-score -0.11; fewer than 50 cells in well enough cells in well; inactive. Against Rab10, the values are Tnf reporter robust z-score 0.21; fewer than 50 cells in well enough cells in well; inactive. Against Or2y1e, the entry reads Tnf reporter robust z-score -0.76; fewer than 50 cells in well enough cells in well; inactive.

Part of the list above, reformatted:
{"gene": "Tbc1d8", "Tnf reporter robust z-score": 0.29, "fewer than 50 cells in well": "enough cells in well", "call": "inactive"}
{"gene": "Cdk8", "Tnf reporter robust z-score": 1.33, "fewer than 50 cells in well": "enough cells in well", "call": "inactive"}
{"gene": "Ndufv3", "Tnf reporter robust z-score": 2.8, "fewer than 50 cells in well": "enough cells in well", "call": "inactive"}
